For the assay, the target named is T1, mutant CFTR C-terminal peptide (1471-1480/4G), biotinylated (UniProt P13569).
T1 sequence (peptide, biotinylated (position not stated)): TEEEVQGGGG
In words: affinity purification with mass spectrometry.

Amino acid sequences for entries named in this document (tags omitted). A change or cut given only in a name is not applied to a line headed by its entry.
UniProt P13569: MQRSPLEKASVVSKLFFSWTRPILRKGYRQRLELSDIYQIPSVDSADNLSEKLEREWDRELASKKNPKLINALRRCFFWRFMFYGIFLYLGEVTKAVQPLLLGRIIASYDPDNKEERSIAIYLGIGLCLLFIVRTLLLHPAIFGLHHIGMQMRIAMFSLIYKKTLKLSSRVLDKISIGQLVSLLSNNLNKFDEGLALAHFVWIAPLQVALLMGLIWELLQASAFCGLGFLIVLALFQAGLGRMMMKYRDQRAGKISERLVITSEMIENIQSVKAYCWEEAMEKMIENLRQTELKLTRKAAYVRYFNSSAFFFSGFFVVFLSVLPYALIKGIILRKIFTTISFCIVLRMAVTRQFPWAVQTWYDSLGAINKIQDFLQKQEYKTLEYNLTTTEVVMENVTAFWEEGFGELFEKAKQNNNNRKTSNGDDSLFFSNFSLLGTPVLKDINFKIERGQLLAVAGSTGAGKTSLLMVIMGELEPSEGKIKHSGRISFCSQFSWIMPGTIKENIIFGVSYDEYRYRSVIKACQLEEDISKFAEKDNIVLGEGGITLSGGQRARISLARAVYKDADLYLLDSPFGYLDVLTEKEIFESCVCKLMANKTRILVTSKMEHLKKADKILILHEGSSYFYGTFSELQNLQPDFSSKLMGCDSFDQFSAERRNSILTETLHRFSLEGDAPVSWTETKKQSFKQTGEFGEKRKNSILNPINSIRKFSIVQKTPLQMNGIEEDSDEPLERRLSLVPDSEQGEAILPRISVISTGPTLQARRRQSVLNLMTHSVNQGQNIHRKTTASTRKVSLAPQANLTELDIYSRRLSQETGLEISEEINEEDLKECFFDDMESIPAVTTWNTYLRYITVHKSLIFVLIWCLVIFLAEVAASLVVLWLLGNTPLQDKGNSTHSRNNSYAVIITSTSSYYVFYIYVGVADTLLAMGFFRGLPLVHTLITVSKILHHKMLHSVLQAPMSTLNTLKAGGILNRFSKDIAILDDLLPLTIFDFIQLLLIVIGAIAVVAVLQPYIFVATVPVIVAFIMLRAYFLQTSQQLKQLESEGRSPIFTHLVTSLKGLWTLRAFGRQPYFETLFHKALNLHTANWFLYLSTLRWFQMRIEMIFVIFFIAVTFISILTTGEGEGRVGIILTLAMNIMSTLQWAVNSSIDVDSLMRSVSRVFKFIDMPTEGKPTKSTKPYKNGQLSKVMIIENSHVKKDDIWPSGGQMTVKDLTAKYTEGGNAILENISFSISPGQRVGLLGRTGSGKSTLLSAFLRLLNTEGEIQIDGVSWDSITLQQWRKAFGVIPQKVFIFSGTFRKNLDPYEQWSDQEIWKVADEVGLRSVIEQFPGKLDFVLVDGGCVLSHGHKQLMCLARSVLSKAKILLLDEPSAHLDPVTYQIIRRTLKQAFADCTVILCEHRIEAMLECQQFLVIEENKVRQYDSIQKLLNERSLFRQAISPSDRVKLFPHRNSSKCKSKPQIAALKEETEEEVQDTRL
UniProt P26040: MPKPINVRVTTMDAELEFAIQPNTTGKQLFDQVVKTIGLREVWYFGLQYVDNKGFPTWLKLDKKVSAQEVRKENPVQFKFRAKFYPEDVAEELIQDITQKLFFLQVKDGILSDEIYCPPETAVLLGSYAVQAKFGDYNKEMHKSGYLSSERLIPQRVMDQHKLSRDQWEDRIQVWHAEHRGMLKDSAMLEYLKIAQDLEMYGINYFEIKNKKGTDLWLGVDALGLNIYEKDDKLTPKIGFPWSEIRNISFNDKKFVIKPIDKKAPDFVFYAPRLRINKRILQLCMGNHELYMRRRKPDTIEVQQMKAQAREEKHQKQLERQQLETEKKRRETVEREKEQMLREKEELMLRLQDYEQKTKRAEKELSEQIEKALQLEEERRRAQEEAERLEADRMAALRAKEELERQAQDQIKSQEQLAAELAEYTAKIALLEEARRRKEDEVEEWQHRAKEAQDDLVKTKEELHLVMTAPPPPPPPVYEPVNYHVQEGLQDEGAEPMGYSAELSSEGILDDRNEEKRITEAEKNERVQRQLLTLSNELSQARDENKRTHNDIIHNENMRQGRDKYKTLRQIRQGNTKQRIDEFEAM

These are yes or no findings as the source states them, for the method shown. Binding seen in cells or lysates may run through a third protein. Here binding means that the protein was enriched with, or labelled near, the bait; the list need not be complete. No binding means not detected with the bait.

Consider “ezrin, mouse kidney (from UniProt P26040 1-586)”, for which the binding entry is reported as “no binding”.
